{"sequences": {"note": "Sequences of proteins named here, by UniProt entry; tags and fusion partners are left off. A change or cut given only in a name is not applied to a line headed by its entry.", "UniProt O94782": "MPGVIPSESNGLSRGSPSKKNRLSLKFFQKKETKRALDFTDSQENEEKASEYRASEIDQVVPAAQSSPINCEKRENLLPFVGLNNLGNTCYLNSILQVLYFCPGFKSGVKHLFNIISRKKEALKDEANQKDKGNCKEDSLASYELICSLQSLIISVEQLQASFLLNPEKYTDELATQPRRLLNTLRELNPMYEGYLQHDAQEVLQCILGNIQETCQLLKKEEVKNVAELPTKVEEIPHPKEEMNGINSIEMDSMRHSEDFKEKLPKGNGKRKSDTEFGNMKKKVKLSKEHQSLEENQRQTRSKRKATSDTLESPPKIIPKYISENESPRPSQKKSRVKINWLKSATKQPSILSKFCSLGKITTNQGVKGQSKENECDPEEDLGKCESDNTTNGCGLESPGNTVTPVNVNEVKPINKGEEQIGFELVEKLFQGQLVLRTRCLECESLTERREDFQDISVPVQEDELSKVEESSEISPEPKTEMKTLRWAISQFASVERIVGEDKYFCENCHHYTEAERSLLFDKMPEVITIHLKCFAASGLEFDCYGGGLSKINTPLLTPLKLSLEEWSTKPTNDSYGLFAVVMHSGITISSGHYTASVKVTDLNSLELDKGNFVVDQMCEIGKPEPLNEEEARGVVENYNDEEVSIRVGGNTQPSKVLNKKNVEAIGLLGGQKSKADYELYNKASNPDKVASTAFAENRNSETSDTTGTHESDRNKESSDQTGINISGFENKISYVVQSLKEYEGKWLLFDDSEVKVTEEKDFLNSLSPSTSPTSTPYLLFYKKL"}, "source": "PubChem BioAssay AID743255", "about": "(National Center for Advancing Translational Sciences (NCATS), 2014)", "note": "Screen size: about 390,000 compounds; about 910 (0.23%) were called active. The shares of active, inactive and inconclusive entries below differ from those in the screen. Calls follow the shape of the dose curve; as a rule, active = well fitted inhibition curve with a large enough effect; inconclusive = small, poorly fitted or top-dose-only effect; inactive = no such curve, though single readings can be large or run the other way. Potencies of inconclusive entries are doubtful fits and often do not repeat. % is scaled to controls: 0 for no effect and ±100 for the full control effect; potency is read from the fitted curve at half-maximal effect."}
{"biological_target": "Ubiquitin carboxyl-terminal hydrolase 1 (Homo sapiens) (UniProt O94782)", "assay": "Inhibitors of USP1/UAF1: Primary Screen; also: nearly all actives have a fitted effect of over 60% in size", "conditions": "recombinant USP1/UAF1, Ub-Rhodamine cleavage fluorescence; activity change, negative = inhibition: at 57.1 µM (top of the series)", "in_short": "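1 nM enzyme complex + cpd, 15 min RT; start with Ub-Rho 150nM final; kinetic fluorescence ex 480/em 540, 6 reads q60 s. Buffer 50mM HEPES pH 7.8, 0.5mM EDTA, 0.1 mg/ml BSA, 1mM TCEP, 0.01% Tween-20.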"}
{"compound": "COc1ccc(N2CCN(C(=O)CCc3nnc4ccc(N5CCC(C)CC5)nn34)CC2)cc1", "activity change, negative = inhibition": "inactive: -19.9%"}
{"compound": "CCCCCc1cc(=O)oc2c(C(CCN3CCCC(C)C3)c3ccc(OC)cc3)c(OC)cc(OC)c12", "note": "(stereo not drawn)", "activity change, negative = inhibition": "inactive: -3.73%"}
{"compound": "COc1cccc(N(C(=O)c2snc(C(N)=O)c2N)C(C(=O)NCC2CCCO2)c2cccs2)c1", "note": "(stereo not drawn)", "Potency": "inconclusive: 0.447 µM [inhibitor, partial curve, poor fit]"}
{"compound": "O=[N+]([O-])c1ccccc1S(=O)(=O)N/C(=N/S(=O)(=O)c1ccccc1)c1ccccc1", "Potency": "inconclusive: 44.7 µM [inhibitor, single point]"}
{"compound": "COc1ccc(NC(=O)Cn2c(SCc3cccc(Cl)c3)nc3ccncc32)c(OC)c1OC", "activity change, negative = inhibition": "inactive: -3.79%"}
{"compound": "CC1CCCCC1NC(=O)C1CCN(S(=O)(=O)N2CCC3(CC2)OCCO3)CC1", "note": "(stereo not drawn)", "Potency": "inconclusive: 7.08 µM [inhibitor, partial curve, poor fit]"}
{"compound": "CC1=C(C(=O)Nc2ccccc2)C(c2ccccc2)n2nc(-c3ccco3)nc2N1", "note": "(stereo not drawn)", "Potency": "inconclusive: 0.199 µM [inhibitor, full curve, poor fit]"}
{"compound": "C/C(=N/NC(=O)c1cc(-c2ccc(Br)s2)[nH]n1)c1ccco1", "Potency": "inconclusive: 6.31 µM [inhibitor, single point]"}
{"compound": "COc1cc(Cl)c(C)cc1NC(=O)CCc1nc2cccnc2n1-c1ccccc1", "Potency": "inconclusive: 50.1 µM [inhibitor, partial curve, poor fit]"}
{"compound": "COc1ccc(NC(=O)[C@H](C)NS(=O)(=O)c2ccc(NC(C)=O)cc2)cc1Cl", "Potency": "inconclusive: 0.251 µM [inhibitor, full curve, poor fit]"}
{"compound": "CCOC(=O)c1ccc(-n2c(CN3CCN(CC)CC3)nc3ccc([N+](=O)[O-])cc3c2=O)cc1", "Potency": "inconclusive: 31.6 µM [inhibitor, partial curve]"}
{"compound": "CCn1c(SC(C)C(=O)Nc2ccc(N3CCOCC3)cc2)nnc1C1CC1", "note": "(stereo not drawn)", "activity change, negative = inhibition": "inactive: -22.2%"}
{"compound": "N#Cc1c(NC(=S)NC(=O)c2ccccc2)sc2c1CCCC2", "activity change, negative = inhibition": "inactive: -20.4%"}
{"compound": "O=C(CCC(=O)N1CCN(c2cccc(Cl)c2)CC1)N1CCN(c2ccccc2)CC1", "activity change, negative = inhibition": "inactive: -13.5%"}
{"compound": "Cc1ccc(CNC(=O)C2(S(=O)(=O)c3ccc(C)cc3)CC2)cc1", "Potency": "inconclusive: 7.08 µM [inhibitor, partial curve, poor fit]"}
{"compound": "COc1cc(/C=N/NC(=O)c2sc3ccccc3c2Cl)ccc1OC(=O)c1ccc([N+](=O)[O-])cc1", "activity change, negative = inhibition": "inactive: -20.5%"}
{"compound": "CSc1ccc(CN(C)C(=O)c2ccc(S(=O)(=O)Nc3ccccc3)cc2)cc1", "activity change, negative = inhibition": "inactive: 0.294%"}
{"compound": "COc1cccc(CNC(=O)CSc2ccc(-c3sc(-c4ccccc4)nc3C)nn2)c1", "Potency": "inconclusive: 35.5 µM [inhibitor, partial curve]"}
{"compound": "CCOc1ccc(NC(=O)CCNS(=O)(=O)c2ccc(Br)s2)cc1", "Potency": "inconclusive: 0.631 µM [inhibitor, full curve, poor fit]"}
{"compound": "CN(C)CCN(C(=O)/C=C/c1cccs1)c1nc2c(F)cc(F)cc2s1", "Potency": "inconclusive: 44.7 µM [inhibitor, partial curve, poor fit]"}
{"compound": "CC(C)(C)c1ccc(C(=O)Nc2ccc(CN3CCS(=O)(=O)CC3)cc2)cc1", "activity change, negative = inhibition": "inactive: -16.1%"}
{"compound": "Cc1ccc(N(CC(=O)N2CCCCCC2)S(C)(=O)=O)cc1", "Potency": "inconclusive: 7.94 µM [inhibitor, partial curve, poor fit]"}
{"compound": "Cn1nc(C(=O)N2CCN(c3ccc(Cl)cc3)CC2)c2c1-c1ccccc1SC2", "Potency": "inconclusive: 4.47 µM [inhibitor, partial curve]"}
{"compound": "N#CCCN1CCN(S(=O)(=O)c2ccc(S(=O)(=O)NCc3ccccc3)cc2)CC1", "Potency": "inconclusive: 50.1 µM [inhibitor, partial curve, poor fit]"}
{"compound": "Cc1ccc(NC(=O)c2c(N3CCCC3=O)c3cc(C)ccc3n2C)c(C)c1", "Potency": "inconclusive: 50.1 µM [inhibitor, partial curve, poor fit]"}
{"compound": "CN(C(=O)c1ccccc1)C1c2c(ccc3ccccc23)OCC1CO", "note": "(stereo not drawn)", "activity change, negative = inhibition": "inactive: -26.4%"}
{"compound": "COc1ccc(OCCn2c(C3CC(=O)N(c4ccc(F)cc4)C3)nc3ccccc32)cc1", "note": "(stereo not drawn)", "Potency": "inconclusive: 44.7 µM [inhibitor, partial curve]"}
{"compound": "CCOC(=O)N1CCN(C(=O)C2CCCN(c3ncnc4c3nc3n4CCCCC3)C2)CC1", "note": "(stereo not drawn)", "Potency": "inconclusive: 0.794 µM [inhibitor, full curve]"}
{"compound": "COc1ccc(NS(=O)(=O)c2cc3[nH]c(=O)c(=O)[nH]c3cc2C)cc1OC", "activity change, negative = inhibition": "inactive: -7.47%"}
{"compound": "Cc1ccc(NC(=O)c2ccc(NC(=O)N3CCSc4ncccc43)cc2)cc1Cl", "Potency": "inconclusive: 0.355 µM [inhibitor, full curve]"}
{"compound": "CN(CC(=O)Nc1ccc(Cl)cc1)CC(=O)Nc1cccc2ccccc12", "Potency": "inconclusive: 50.1 µM [inhibitor, partial curve]"}
{"compound": "COc1ccc(CN(C(=O)c2snc(C(N)=O)c2N)C(CC(C)C)C(=O)NC2CCCCC2)cc1", "note": "(stereo not drawn)", "activity change, negative = inhibition": "inactive: 1.5%"}
{"compound": "COc1cccc(N2CCN(C(=O)C3CCCN(S(=O)(=O)c4ccc(Br)s4)C3)CC2)c1", "note": "(stereo not drawn)", "Potency": "inconclusive: 5.62 µM [inhibitor, full curve, poor fit]"}
{"compound": "O=c1c(O)c(-c2cccs2)oc2ccc(Cl)cc12", "Potency": "active: 25.1 µM"}
{"compound": "CN1CCC2(CC1)N=C(c1ccc(F)cc1)C(=S)N2C(=O)c1ccccc1", "Potency": "inconclusive: 39.8 µM [inhibitor, partial curve]"}
{"compound": "CC(C)N(C(=O)COC(=O)c1cccc(C(=O)OCC(=O)N(C(C)C)C(C)C)n1)C(C)C", "Potency": "inconclusive: 39.8 µM [inhibitor, single point]"}
{"compound": "CC1=C/C(=C\\c2ccc3c(c2)OCO3)C(=O)S1", "Potency": "inconclusive: 50.1 µM [inhibitor, partial curve]"}
{"compound": "Cc1cccc(N(CC(=O)N/N=C/c2cc([N+](=O)[O-])ccc2Cl)S(C)(=O)=O)c1C", "activity change, negative = inhibition": "inactive: -13.7%"}
{"compound": "CCCCc1ccc(NC(=O)CC(C)C)cc1", "Potency": "inconclusive: 4.47 µM [inhibitor, partial curve]"}
{"compound": "CSc1nsc(/C=C/Nc2ccc(Cl)cc2)c1C#N", "Potency": "inconclusive: 39.8 µM [inhibitor, partial curve]"}
{"compound": "Cc1ccccc1NC(=S)NCc1ccc2[nH]c3c(c2c1)CCCC3", "Potency": "inconclusive: 31.6 µM [inhibitor, partial curve]"}
{"compound": "COc1ccc2sc(-c3ccccc3OC)c(C#CCCO)c2c1", "Potency": "inconclusive: 0.282 µM [inhibitor, full curve, poor fit]"}
{"compound": "O=C(NCc1ccccc1)c1cc(-c2cccc(Cl)c2)on1", "activity change, negative = inhibition": "inactive: -5.34%"}
{"compound": "O=Cc1ccc(OCc2cn(CC(=O)c3ccc(O)cc3)nn2)cc1", "Potency": "inconclusive: 44.7 µM [inhibitor, partial curve, poor fit]"}
{"compound": "COc1ccc(CN(Cc2cccn2C)S(=O)(=O)c2cccc(C(F)(F)F)c2)cc1", "Potency": "inconclusive: 35.5 µM [inhibitor, partial curve]"}
{"compound": "Cc1cc(N2CCCC2)c(F)cc1/C=C\\[N+](=O)[O-]", "Potency": "inconclusive: 15.8 µM [inhibitor, partial curve]"}
{"compound": "Cc1ccc(Cn2c(=O)n(CCCCC(=O)NCCc3ccc(Cl)cc3)c(=O)c3ccccc32)cc1", "Potency": "inconclusive: 251 µM [inhibitor, partial curve]"}
{"compound": "Cc1ccc(NC(=O)C(C)c2ccc([N+](=O)[O-])cc2)cc1Cl", "note": "(stereo not drawn)", "Potency": "inconclusive: 0.708 µM [inhibitor, full curve]"}
{"compound": "CCc1ccc(NCc2cc3cc4c(cc3n(CC(=O)Nc3ccc(Cl)cc3)c2=O)OCO4)cc1", "Potency": "inconclusive: 31.6 µM [inhibitor, partial curve]"}
{"compound": "COc1ccc(OC)c(N(CC(=O)NCc2ccccc2)S(=O)(=O)c2ccccc2)c1", "Potency": "inconclusive: 79.4 µM [inhibitor, partial curve]"}
{"compound": "COC(=O)N(C)C[C@H]1OCc2cnnn2CCCC(=O)N([C@H](C)CO)C[C@H]1C", "activity change, negative = inhibition": "inactive: -20.1%"}
{"compound": "Cc1ccc(C)c(Cn2c(=O)n(Cc3ccccc3)c(=O)c3c(C)c(C)sc32)c1", "Potency": "inconclusive: 5.62 µM [inhibitor, full curve, poor fit]"}
{"compound": "COCCNC(=O)C(=O)NNS(=O)(=O)c1ccc(Cl)cc1", "activity change, negative = inhibition": "inactive: -21.4%"}
{"compound": "COc1ccc(S(=O)(=O)N2CCOCC2)cc1NC(=O)c1cccc(-n2cccc2)c1", "Potency": "inconclusive: 50.1 µM [inhibitor, partial curve, poor fit]"}
{"compound": "Cc1cc(OCC(=O)Nc2ccc(CN3CCCCC3)cc2)ccc1Cl", "Potency": "inconclusive: 28.2 µM [inhibitor, partial curve, poor fit]"}
{"compound": "COc1cccc(/C=c2\\s/c(=C\\C(=O)C(C)(C)C)[nH]c2=O)c1", "Potency": "inconclusive: 31.6 µM [inhibitor, partial curve]"}
{"compound": "O=C(Nc1ccc2[nH]c(=S)sc2c1)c1ccccc1", "activity change, negative = inhibition": "inactive: -5.95%"}
{"compound": "CC1CCN(c2nc3c(S(=O)(=O)c4ccccc4)nnn3c3ccsc23)CC1", "Potency": "inconclusive: 0.1 µM [inhibitor, full curve, poor fit]"}
{"compound": "CN(C)C(=O)CCc1ccc2c3c([nH]c2c1)[C@]1(C)[C@@H](C(=O)N2CCOCC2)C[C@H](CC(=O)NCCc2ccccn2)C(=O)N1CC3", "Potency": "inconclusive: 0.251 µM [inhibitor, full curve, poor fit]"}
{"compound": "Cc1cc(C)nc(SCCCNCc2ccc(Br)cc2)n1", "activity change, negative = inhibition": "inactive: -19.5%"}
{"compound": "CSc1ccc(/C=N\\NC(=O)CNc2ccc(C)cc2)cc1", "Potency": "inconclusive: 31.6 µM [inhibitor, single point]"}
{"compound": "COc1ccc(OC)c(S(=O)(=O)N2CCN(CC(O)COc3ccc(C#N)cc3)CC2)c1", "note": "(stereo not drawn)", "Potency": "inconclusive: 70.8 µM [inhibitor, partial curve, poor fit]"}
{"compound": "CCN1C(=O)[C@H]2[C@H]3CN=C(SCc4ccc(Cl)cc4)N3[C@@](Cc3ccccc3)(C(=O)OC)[C@H]2C1=O", "Potency": "inconclusive: 126 µM [inhibitor, partial curve, poor fit]"}
